Over roughly 33,000 sequences, “E-score (-0.5 to 0.5)” has its median near -8e-05; the highest 2% begin near 0.23. Some of the results follow.

The values below come from the supplement of paper PMC3334620.

The experiment addresses T1, Nrg2 (UniProt P38082).
T1 sequence: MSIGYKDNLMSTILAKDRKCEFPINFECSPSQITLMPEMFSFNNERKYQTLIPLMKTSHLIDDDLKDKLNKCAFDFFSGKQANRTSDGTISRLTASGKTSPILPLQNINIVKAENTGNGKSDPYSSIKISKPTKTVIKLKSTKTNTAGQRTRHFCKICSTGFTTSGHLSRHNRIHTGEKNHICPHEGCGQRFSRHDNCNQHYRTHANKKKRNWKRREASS
Kind of experiment: PBM E-score (8-mer binding enrichment) (E-score (-0.5 to 0.5)); higher = stronger / more preferred TF binding. The settings on record: protein concentration: 100 nM; construct: GST-full length. The method in brief: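 Each ungapped eight-base word and its reverse complement, pooled, received an E-score from the Universal PBM Analysis Suite. Underlying scans, normalised with masliner, recorded fluorescent anti-GST bound to GST-tagged yeast transcription factors. These were applied at about 100-200 nM to universal all-10-mer Agilent arrays double-stranded by primer extension.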
With ACTGAACG, the “PBM E-score” value is -0.215.
Turning to GTGACAGA, the “PBM E-score” value was -0.0305.
As for CGCCGGCA, the “PBM E-score” value is 0.0711.
Turning to ACGGGCCA, the “PBM E-score” value was -0.105.
For CAAAGGCC, the “PBM E-score” value was -0.158.
As to CCCCTGCG, the “PBM E-score” value was -0.0622.
The value for GACTGTGC was -0.176; that for CCGACCCA was 0.00941; that for ACCCCGTA was 0.173.
In the case of AAAAAAAC, the “PBM E-score” value is -0.0597.
For GAAACGAC, the “PBM E-score” value turned out to be 0.161.
For the sequence ACCTAACA, the “PBM E-score” value was 0.0119.
As for CAAGGACG, the “PBM E-score” value is -0.221.
The value for ACTTGAGG was -0.0464; that for GCTGCACA was -0.124.
With AGACAGTG, the “PBM E-score” value stood at 0.00117.
For the sequence AGGGAATG, the “PBM E-score” value worked out at 0.032.
As to AGAATTCT, the “PBM E-score” value is 0.105.
On to CCTGTCGC, for which the “PBM E-score” value is -0.0429.
For ATGTCTGG, the “PBM E-score” value stood at 0.0226.
For the sequence AGCACAGA, the “PBM E-score” value is 0.132.
For the sequence GAAATCTA, the “PBM E-score” value stood at 0.0661.
For the sequence AGACTTTA, the “PBM E-score” value is -0.178.
As to GAATAGCA, the “PBM E-score” value is 0.0807.
For GTAGTTTA, the “PBM E-score” value worked out at 0.138.
With CCTTTTTC, the “PBM E-score” value was determined as 0.0818.
The value for CGCTAGTC was -0.343.
The value for GGCAGAAA was 0.286; that for GTCCTCAC was -0.0771; that for AACGGCTA was 0.0404.
In the case of AAGCAATA, the “PBM E-score” value is 0.0458.
On to ATAGGCCC, for which the “PBM E-score” value was -0.0444.
For AAGTACAC, the “PBM E-score” value turned out to be 0.0484.
The value for CTCGTCTA was -0.124; that for AGAGAGCT was -0.238; that for CCAGGCCG was 0.022.
For CGCACATA, the “PBM E-score” value is -0.115.
Regarding CAAAAGGA, the “PBM E-score” value was -0.0703.
Consider AGTTGGGG, for which the “PBM E-score” value is 0.138.
As for ATTCAAGA, the “PBM E-score” value is -0.0613.
GACGAACA: the “PBM E-score” value turned out to be 0.0883.
In the case of ATGGGATA, the “PBM E-score” value was -0.0785.
Consider ATCGCATA, for which the “PBM E-score” value was -0.0253.
Regarding GAAAACCA, the “PBM E-score” value was found to be 0.0315.
The value for ATCCAAAT was 0.0165; that for TGACTCAA was -0.167.
As for ATTCCCAA, the “PBM E-score” value worked out at 0.0933.
The value for CCCTCTTC was -0.169; that for GCGGGCCC was 0.0657; that for AGATTCCG was 0.101.
In the case of GGTCCTTA, the “PBM E-score” value came to 0.176.
As for ACTGCTCA, the “PBM E-score” value was 0.104.
With ACATTAAC, the “PBM E-score” value was found to be 0.0369.
For AGCGTCCT, the “PBM E-score” value is -0.255.
Consider CTCCTTAC, for which the “PBM E-score” value was -0.175.
The value for ACGAGGAT was -0.142; that for AGTTCCGC was 0.0436; that for GTTTTTCA was 0.0378.
With AGTTATAA, the “PBM E-score” value was -0.0485.
In the case of ATGTCGTG, the “PBM E-score” value was -0.0456.
Turning to CGTACAAG, the “PBM E-score” value was 0.0307.
Turning to CGCATGTA, the “PBM E-score” value is -0.0453.
As to CTAATTCA, the “PBM E-score” value is 0.0248.
As for ACTGTTAC, the “PBM E-score” value is 0.0438.
For AAGCTCGA, the “PBM E-score” value is 0.0207.
Take ATGTCTGA: the “PBM E-score” value came out at 0.0588.
The value for CAGTGAAA was 0.0943.
In the case of ACAGCCGG, the “PBM E-score” value is 0.0348.
On to ACCAAGCA, for which the “PBM E-score” value was -0.00609.
Take CATATTAA: the “PBM E-score” value amounted to 0.129.
With CCATTTTC, the “PBM E-score” value was 0.18.
The value for ACCGCCTA was -0.0101; that for ACAGCACC was -0.119.
For AGTTATGC, the “PBM E-score” value is 0.103.
Consider GGTTTGGA, for which the “PBM E-score” value is 0.0625.
The value for GTGAGGGA was -0.00312; that for TAAGCACA was 0.151; that for AATTCTGA was -0.0333.
The value for GTCCTCAA was -0.0142; that for CGGGTCCC was -0.125; that for ATCCCATG was 0.0795.
As to ATGTGCTC, the “PBM E-score” value was 0.146.
GACGCGGA: the “PBM E-score” value was -0.174.
CAACGTCG: the “PBM E-score” value was found to be 0.0688.
As for CTCAAGGC, the “PBM E-score” value came out at 0.0792.
ATACACTC: the “PBM E-score” value was determined as 0.0982.
Take ATCCAGCA: the “PBM E-score” value is -0.0662.
As to GCGTATAC, the “PBM E-score” value was -0.083.
As for GGTCAGCA, the “PBM E-score” value is 0.0136.
CCGCATAC: the “PBM E-score” value is 0.0863.
For the sequence ATGGAGTA, the “PBM E-score” value is 0.124.
The value for AGGAGAAC was -0.0432; that for CGTTGTAC was -0.0776.
Consider AGTCAAAA, for which the “PBM E-score” value came to 0.00477.
